In all, about 350,000 compounds went through this assay and about 6,000 (1.7%) were called active. Inconclusive results, whose numbers are uncertain, are shown with a selection of clear calls. No stated cut-off is given here; in the data, active means CPE inhibition above about 20% (passing the limit was not always enough); inconclusive means no clear call, values can overlap the other calls; tested in BHK-21 cells.
Experiment: protection of cells from dengue 2 killing – plate reader, single concentration, primary screen (AID 651640);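 further: 0% = median of neutral control wells and 100% = median of positive control wells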
Settings: DENV2-infected cells, cytopathic effect rescue, at 9.99 µM, stronger effect = higher value
For O=C(CSc1nccc(=O)[nH]1)NCc1ccc2c(c1)OCO2, the CPE inhibition was inconclusive: 54.9%. For CCN(C[C@H]1N[C@@](Cc2ccccc2)(C(=O)OC)[C@H]2C(=O)N(C)C(=O)[C@@H]12)C(=O)c1ccc(F)cc1, the CPE inhibition was inconclusive: 21%. With COc1ccc(C(=O)Nc2ccc3c(c2)C(=O)N(C)C[C@H](OC)[C@H](C)CN(C(C)=O)[C@H](C)CO3)cc1 the CPE inhibition was inactive: -2.07%. For Cc1ccc(NC(=O)COc2ccc(N3CC(C(N)=O)CC3=O)cc2)c(C)c1 (centres undefined), the CPE inhibition was inconclusive: 30.4%. With CCOc1ccc(C(=O)C(C)OC(=O)Cn2c(C)csc2=O)cc1 (centres undefined) the CPE inhibition was inconclusive: 22.9%. With Cc1ccccc1N(C(=O)c1snc(C(N)=O)c1N)C(C(=O)NC1CCCCC1)c1ccc(O)cc1 (centres undefined) the CPE inhibition was inconclusive: 33.3%. In the case of C[C@@H]1CN([C@H](C)CO)C(=O)CCCn2nncc2CO[C@H]1CN(C)S(=O)(=O)c1ccc(F)cc1, the CPE inhibition is reported as inconclusive: 23.9%. In the case of O=C(c1ccncc1)N1N=C(C2CCCCC2)CC1(O)C(F)(F)F (centres undefined), the CPE inhibition is reported as inconclusive: 21.7%. With Cc1noc(C)c1NC(=O)N(C)C[C@@H]1Oc2cc(C#CCC(C)C)ccc2S(=O)(=O)N([C@H](C)CO)C[C@H]1C the CPE inhibition was inconclusive: 5.88%. With C=CCNc1oc(-c2ccco2)nc1S(=O)(=O)c1ccccc1 the CPE inhibition was inactive: -0.549%. In the case of COc1ccc(CNC(=O)CCNS(=O)(=O)c2ccc(Cl)cc2)cc1, the CPE inhibition is reported as inactive: 2.6%. For CN1C(=O)c2cc(NC(=O)c3ccc(F)c(F)c3)ccc2OC[C@H]2O[C@@H](CC(=O)N[C@@H]3CCN(Cc4ccccc4)C3)CC[C@H]21, the CPE inhibition was inconclusive: 22.3%. With Cc1ccc(O)c(C(=O)c2cnn(-c3ccc(S(=O)(=O)N4CCOCC4)cc3[N+](=O)[O-])c2)c1 the CPE inhibition was inconclusive: 21.8%. In the case of Cc1ccc(-c2ccc([C@H]3[C@@H](CO)N4CCCCN(C(=O)Nc5cccc(F)c5)C[C@H]34)cc2)cc1, the CPE inhibition is reported as inactive: -10.8%. For CCn1c2ccccc2c2cc(NC(=O)c3ccccc3[N+](=O)[O-])ccc21, the CPE inhibition was active: 31.8%. With C[C@@H]1CCCCO[C@@H](CN(C)C(=O)c2ccccc2)[C@@H](C)CN([C@@H](C)CO)C(=O)c2cc(NC(=O)Cc3ccccc3)ccc2O1 the CPE inhibition was inactive: 7.26%. In the case of CC(C)C#Cc1ccc([C@@H]2[C@H](C#N)N(C(=O)CN(C)C)[C@H]2CO)cc1, the CPE inhibition is reported as inconclusive: 48.7%. For O=C(CSc1nc2c(c(=O)n1-c1ccc(Cl)cc1)SCC2)N1CCOCC1, the CPE inhibition was inconclusive: 50.1%. For CO[C@@H]1CN(C)C(=O)c2ccc(NC(=O)Nc3ccccc3)cc2OC[C@@H](C)N(C(C)=O)C[C@@H]1C, the CPE inhibition was active: 51.1%. For CCCN1[C@H](C(=O)NCC(F)(F)F)[C@@H](CO)[C@@H]2Cn3c(ccc(-c4ccccc4)c3=O)[C@@H]21, the CPE inhibition was active: 92.3%. With Cc1cn([C@H]2C[C@H](O)[C@@H](CNCc3ccc(F)c(N4CCOCC4)c3)O2)c(=O)[nH]c1=O the CPE inhibition was inconclusive: 22%. In the case of CN(C)CCCN(C(=O)CCOc1ccccc1)c1nc2ccc(F)cc2s1, the CPE inhibition is reported as inconclusive: 32%. For O=C(C[C@@H]1C=C[C@@H](NC(=O)c2ccc3c(c2)OCO3)[C@H](CO)O1)NCc1ccc(F)cc1, the CPE inhibition was inactive: -2.13%. For CCCNC(=O)N1[C@@H]2CNC[C@H]1C2c1ccc(-c2ccc(C)cc2)cc1 (some centres undefined), the CPE inhibition was active: 37.9%. With O=C(COC(=O)C1COc2ccccc2O1)NC1CCCCC1 (centres undefined) the CPE inhibition was inactive: 8.94%. With Cn1cc(CN2CCC(n3nccc3NC(=O)CCOc3ccccc3)CC2)cn1 the CPE inhibition was inactive: -8.31%. In the case of Cc1noc(C)c1NC(=O)N(C)C[C@@H]1Oc2ccc(NC(=O)Cn3cnnn3)cc2C(=O)N([C@@H](C)CO)C[C@@H]1C, the CPE inhibition is reported as inactive: 4.05%. With COCC(=O)N1CC(=O)N2[C@@H](CO)[C@@H](c3ccc(Br)cc3)[C@@H]2C1 the CPE inhibition was active: 29.3%. In the case of Cc1cccc(NC(=O)C2CCN(S(=O)(=O)c3ccc4c(c3)NC(=O)CO4)CC2)c1C, the CPE inhibition is reported as inactive: -0.249%. With CCOc1ccc(CCNC(=O)C2CSC3(C)CCC(=O)N23)cc1OCC (centres undefined) the CPE inhibition was inconclusive: 21.2%. With CC(Oc1ccc(Cl)cc1Cl)C(=O)N(C)c1ccccc1 (centres undefined) the CPE inhibition was inactive: 0.31%. For COc1ccc(Cc2nc3ccc(C(=O)NC(C)c4cnn(C)c4)cc3o2)cc1 (centres undefined), the CPE inhibition was inconclusive: 78.4%. In the case of O=C(COC(=O)c1ccc(O)cc1)Nc1ccc2c(c1)OCO2, the CPE inhibition is reported as inconclusive: 29.9%. With CC(C)NC(=O)Nc1ccc2c(c1)C(=O)N([C@@H](C)CO)C[C@H](C)[C@H](CN(C)Cc1ccccc1)OCCCC[C@@H](C)O2 the CPE inhibition was inconclusive: 23.4%. With O=C(NC1CCCC1)C1c2ccccc2OCC(=O)N1Cc1cccnc1 (centres undefined) the CPE inhibition was inconclusive: 48.9%. For C[C@@H]1CN([C@@H](C)CO)S(=O)(=O)c2ccc(-c3cccnc3)cc2O[C@H]1CN(C)C(=O)C1CCC1, the CPE inhibition was inconclusive: 25%. In the case of O=[N+]([O-])c1ccc(S(=O)Cc2ccccc2)c([N+](=O)[O-])c1 (centres undefined), the CPE inhibition is reported as inactive: 0.323%. For COCC(=O)Nc1ccc2c(c1)[C@H]1C[C@@H](CC(=O)NCc3ccccn3)O[C@H](CO)[C@H]1O2, the CPE inhibition was inactive: 4.02%. With CCc1ccc(CNC(=O)CCc2nc(-c3cccs3)no2)cc1 the CPE inhibition was inconclusive: 89.1%. For COCCCNC(=S)Nc1ccc2nc3n(c(=O)c2c1)CCCCC3, the CPE inhibition was inconclusive: 27.8%. For CO[C@H]1CN(C)C(=O)c2cc(NS(C)(=O)=O)ccc2OC[C@@H](C)N(C(=O)c2ccc3c(c2)OCO3)C[C@H]1C, the CPE inhibition was active: 27.5%. With C[C@@H]1CCCCO[C@H](CN(C)C(=O)Nc2cccc3ccccc23)[C@H](C)CN([C@H](C)CO)C(=O)c2cc(NS(=O)(=O)c3ccccc3)ccc2O1 the CPE inhibition was inactive: -16.1%. In the case of C[C@@H]1CN([C@H](C)CO)C(=O)c2cccc(NS(=O)(=O)c3cccs3)c2O[C@@H]1CN(C)S(C)(=O)=O, the CPE inhibition is reported as inconclusive: 25.3%. For COc1ccccc1CN1C(=O)CN(C2CCCC2)C(=O)C1c1ccc(F)cc1 (centres undefined), the CPE inhibition was inconclusive: 37.9%. For Cc1ccc(C)c(NC(=O)C2=CCN(S(=O)(=O)c3ccc(F)cc3)CC2)c1, the CPE inhibition was inconclusive: 20.1%. With O=C(CNC(=O)c1ccccc1)OCC(=O)c1ccccc1Cl the CPE inhibition was active: 28.4%. In the case of O=C([C@H]1[C@H](CO)[C@H]2Cn3c(ccc(-c4ccccc4)c3=O)[C@@H]1N2CCC(F)(F)F)N1CCOCC1, the CPE inhibition is reported as inactive: -2.9%. For CC(C)(C)c1csc(NC(=O)c2ccccc2O)n1, the CPE inhibition was inconclusive: 23.1%. With COC(=O)c1ccc([C@H]2CC(=O)O2)cc1 the CPE inhibition was active: 76%. In the case of CCOC(=O)C(C(=O)Cc1ccccc1)c1ccccc1 (centres undefined), the CPE inhibition is reported as inconclusive: 31.6%. With O=C(c1cccc(F)c1)N1CC(=O)N2[C@H](C1)[C@@H](c1ccc(C#Cc3ccc(F)cc3)cc1)[C@@H]2CO the CPE inhibition was inconclusive: 21.4%. In the case of O=C(NN1CCOCC1)c1c(-c2ccccc2)sc2ccccc12, the CPE inhibition is reported as inconclusive: 70.6%. In the case of CCCNC(=O)N(C)C[C@@H]1Oc2ncc(C#CC3CCCCC3)cc2C(=O)N([C@H](C)CO)C[C@H]1C, the CPE inhibition is reported as inconclusive: 23.7%. In the case of O=C(NC1CCCCC1)N1CC(=O)N2[C@@H](CO)[C@H](c3ccc(-c4cccnc4)cc3)[C@@H]2C1, the CPE inhibition is reported as inactive: 14.3%. In the case of COc1ccc(/C=N/NC(=O)c2ccco2)cc1COc1ccc(F)cc1, the CPE inhibition is reported as inactive: 14.4%. With COC(=O)C[C@@H]1CC[C@@H]2[C@@H](COc3ccc(NC(=O)NC(C)C)cc3C(=O)N2C)O1 the CPE inhibition was inconclusive: 22%. With CCOC(=O)CNC(=S)N(Cc1cccs1)C1CCCCC1 the CPE inhibition was active: 20.6%. In the case of COc1cc(Br)c(CC2c3cc(OC)c(OC)cc3CCN2C)cc1OC (centres undefined), the CPE inhibition is reported as inconclusive: 39.7%. In the case of CN(C)c1ccc(CN2CCC(C(=O)NC(c3ccc(F)cc3)c3ccc4ccccc4n3)CC2)cc1 (centres undefined), the CPE inhibition is reported as inactive: 7.06%. For COCCNC(=O)C[C@H]1C[C@H]2c3cc(NC(=O)Nc4ccc(F)cc4)ccc3O[C@H]2[C@H](CO)O1, the CPE inhibition was inconclusive: 24%. With CCOc1cccc2sc(N(CCCN(C)C)C(=O)c3ccc(S(=O)(=O)N(CC)Cc4ccccc4)cc3)nc12 the CPE inhibition was inactive: 16.2%. For Cc1ccc(S(C)(=O)=O)cc1C(=O)N1CC(C(N)=O)Oc2ccccc21 (centres undefined), the CPE inhibition was inconclusive: 24.5%. For FC(F)(F)c1cc(Cl)c2nc(-c3ccccc3)c(Cc3cccc(Cl)c3)n2c1, the CPE inhibition was inconclusive: 20.5%. In the case of Cc1cccc(CCNC(=O)c2cc(S(=O)(=O)N3CCCCC3)c[nH]2)c1, the CPE inhibition is reported as inconclusive: 37.4%. For COc1cccc(S(=O)(=O)N(C)C[C@H]2OCc3ccccc3-c3ccccc3C(=O)N([C@H](C)CO)C[C@H]2C)c1, the CPE inhibition was inactive: 1.01%. With O=c1[nH]c(=O)n(CCCc2ccccc2)cc1-c1ccccc1 the CPE inhibition was inconclusive: 33.4%. For Cc1ccc(OCCC(=O)OCC(=O)NC2CCS(=O)(=O)C2)cc1 (centres undefined), the CPE inhibition was inconclusive: 31.6%. With CCCNC(=O)C[C@H]1CC[C@H]2[C@@H](COc3ccc(NC(=O)NCC)cc3C(=O)N2C)O1 the CPE inhibition was inactive: -1.27%. In the case of C[C@@H]1CN([C@@H](C)CO)C(=O)Cc2cc(N(C)C)ccc2O[C@@H]1CN(C)Cc1ccc(C(=O)O)cc1, the CPE inhibition is reported as active: 33.2%. With CC(C)NC(=O)N1CC[C@@H]2[C@@H](CO)N(C)c3ccc(Br)cc3[C@@H]21 the CPE inhibition was inactive: 16.3%. With O=C(COC(=O)c1ccc(Br)o1)NC12CC3CC(CC(C3)C1)C2 the CPE inhibition was inconclusive: 37.6%. With O=C(Oc1cccc(C(=S)N2CCOCC2)c1)c1cccc([N+](=O)[O-])c1 the CPE inhibition was inconclusive: 31.4%. In the case of Oc1cc(NCc2ccc(F)cc2)cc2cccnc12, the CPE inhibition is reported as inactive: -7.71%. In the case of C[C@H]1CN([C@@H](C)CO)C(=O)c2cc(NC(=O)CCC(F)(F)F)ccc2O[C@H]1CN(C)S(=O)(=O)c1ccc(Cl)cc1, the CPE inhibition is reported as active: 73.3%.
